# Measurements from the supplement of paper PMC12823440, “Inhibitors supercharge kinase turnover through native proteolytic circuits” (Nature, 2025).
# Amino acid sequences for entries named in this document (tags omitted). A change or cut given only in a name is not applied to a line headed by its entry.
# UniProt Q15303, whole entry R711C: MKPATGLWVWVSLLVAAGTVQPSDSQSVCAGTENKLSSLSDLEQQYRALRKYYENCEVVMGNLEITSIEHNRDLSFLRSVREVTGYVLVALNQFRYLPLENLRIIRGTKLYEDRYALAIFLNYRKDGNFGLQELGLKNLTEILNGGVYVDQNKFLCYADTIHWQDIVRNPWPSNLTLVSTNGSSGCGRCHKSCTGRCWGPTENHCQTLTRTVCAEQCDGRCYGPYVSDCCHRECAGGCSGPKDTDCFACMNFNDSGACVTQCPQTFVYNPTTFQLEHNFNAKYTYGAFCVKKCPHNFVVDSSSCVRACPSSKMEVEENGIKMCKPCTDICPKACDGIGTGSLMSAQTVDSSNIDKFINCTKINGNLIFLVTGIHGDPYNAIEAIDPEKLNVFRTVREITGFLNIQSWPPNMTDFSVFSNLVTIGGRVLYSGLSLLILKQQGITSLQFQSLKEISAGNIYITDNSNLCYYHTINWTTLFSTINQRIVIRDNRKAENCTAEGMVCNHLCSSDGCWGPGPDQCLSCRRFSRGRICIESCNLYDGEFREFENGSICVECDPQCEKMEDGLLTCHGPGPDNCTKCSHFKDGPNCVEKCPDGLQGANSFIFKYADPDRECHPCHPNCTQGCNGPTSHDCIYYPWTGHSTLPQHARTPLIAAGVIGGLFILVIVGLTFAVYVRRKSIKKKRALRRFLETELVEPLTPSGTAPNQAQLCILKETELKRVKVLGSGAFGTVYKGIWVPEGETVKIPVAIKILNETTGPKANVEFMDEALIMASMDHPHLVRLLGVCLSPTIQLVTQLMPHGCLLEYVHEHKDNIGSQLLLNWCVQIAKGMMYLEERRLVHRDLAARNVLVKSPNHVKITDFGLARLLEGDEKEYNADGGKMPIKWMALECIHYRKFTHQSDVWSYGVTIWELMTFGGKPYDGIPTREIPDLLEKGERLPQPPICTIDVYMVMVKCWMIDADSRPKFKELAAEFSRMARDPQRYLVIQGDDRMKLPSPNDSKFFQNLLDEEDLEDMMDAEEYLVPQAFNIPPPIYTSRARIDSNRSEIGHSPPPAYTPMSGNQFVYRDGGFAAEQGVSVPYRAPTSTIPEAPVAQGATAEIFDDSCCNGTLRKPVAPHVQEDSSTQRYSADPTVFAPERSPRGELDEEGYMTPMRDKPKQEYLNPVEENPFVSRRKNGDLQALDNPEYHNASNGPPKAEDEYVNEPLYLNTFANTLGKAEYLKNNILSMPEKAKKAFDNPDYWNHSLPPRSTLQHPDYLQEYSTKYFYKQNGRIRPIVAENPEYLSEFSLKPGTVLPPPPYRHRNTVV
# UniProt P21802, whole entry, looked up: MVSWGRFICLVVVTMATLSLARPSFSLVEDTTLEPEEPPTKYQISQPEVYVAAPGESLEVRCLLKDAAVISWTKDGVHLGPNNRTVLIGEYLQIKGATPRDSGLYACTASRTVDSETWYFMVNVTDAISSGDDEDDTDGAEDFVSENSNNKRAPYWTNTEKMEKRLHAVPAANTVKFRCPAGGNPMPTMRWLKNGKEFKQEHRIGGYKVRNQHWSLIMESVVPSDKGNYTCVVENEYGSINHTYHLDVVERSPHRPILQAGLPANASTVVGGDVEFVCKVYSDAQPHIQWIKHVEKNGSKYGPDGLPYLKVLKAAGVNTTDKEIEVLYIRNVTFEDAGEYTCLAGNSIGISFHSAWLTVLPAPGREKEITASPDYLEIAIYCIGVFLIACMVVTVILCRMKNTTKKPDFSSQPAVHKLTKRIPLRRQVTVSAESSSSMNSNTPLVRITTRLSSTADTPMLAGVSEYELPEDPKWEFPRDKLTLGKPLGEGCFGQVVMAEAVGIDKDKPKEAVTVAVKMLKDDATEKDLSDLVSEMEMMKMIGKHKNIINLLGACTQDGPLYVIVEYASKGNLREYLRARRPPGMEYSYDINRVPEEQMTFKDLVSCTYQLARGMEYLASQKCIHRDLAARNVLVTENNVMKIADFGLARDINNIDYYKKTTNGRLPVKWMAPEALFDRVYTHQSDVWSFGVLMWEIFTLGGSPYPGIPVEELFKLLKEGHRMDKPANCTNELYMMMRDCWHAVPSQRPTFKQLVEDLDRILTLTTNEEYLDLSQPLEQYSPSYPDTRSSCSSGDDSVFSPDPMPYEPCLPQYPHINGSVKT
# UniProt P36888, whole entry: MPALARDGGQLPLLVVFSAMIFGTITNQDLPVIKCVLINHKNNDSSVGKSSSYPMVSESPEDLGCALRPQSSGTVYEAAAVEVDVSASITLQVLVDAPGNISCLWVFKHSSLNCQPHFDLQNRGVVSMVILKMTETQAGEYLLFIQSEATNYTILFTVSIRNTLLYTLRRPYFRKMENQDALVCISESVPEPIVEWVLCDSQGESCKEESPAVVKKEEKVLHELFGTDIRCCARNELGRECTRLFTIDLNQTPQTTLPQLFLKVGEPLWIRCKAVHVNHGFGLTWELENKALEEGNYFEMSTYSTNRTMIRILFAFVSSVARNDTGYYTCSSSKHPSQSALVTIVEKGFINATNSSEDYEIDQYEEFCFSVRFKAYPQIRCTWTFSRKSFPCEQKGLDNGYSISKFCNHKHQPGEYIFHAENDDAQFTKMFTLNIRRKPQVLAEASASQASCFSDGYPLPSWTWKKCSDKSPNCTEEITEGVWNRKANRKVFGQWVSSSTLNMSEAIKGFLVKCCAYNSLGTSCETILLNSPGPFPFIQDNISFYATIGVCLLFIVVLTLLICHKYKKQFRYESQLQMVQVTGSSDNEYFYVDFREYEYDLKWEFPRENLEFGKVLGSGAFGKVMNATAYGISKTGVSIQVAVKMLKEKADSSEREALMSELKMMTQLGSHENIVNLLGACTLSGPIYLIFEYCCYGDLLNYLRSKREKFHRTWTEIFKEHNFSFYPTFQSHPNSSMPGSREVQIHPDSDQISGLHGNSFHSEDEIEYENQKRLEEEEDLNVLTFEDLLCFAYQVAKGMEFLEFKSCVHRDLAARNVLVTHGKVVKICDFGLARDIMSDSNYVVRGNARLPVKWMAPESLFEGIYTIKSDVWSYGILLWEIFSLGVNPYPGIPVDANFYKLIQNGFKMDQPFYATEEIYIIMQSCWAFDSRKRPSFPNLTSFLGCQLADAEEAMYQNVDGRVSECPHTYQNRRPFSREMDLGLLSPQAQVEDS
# UniProt P49840: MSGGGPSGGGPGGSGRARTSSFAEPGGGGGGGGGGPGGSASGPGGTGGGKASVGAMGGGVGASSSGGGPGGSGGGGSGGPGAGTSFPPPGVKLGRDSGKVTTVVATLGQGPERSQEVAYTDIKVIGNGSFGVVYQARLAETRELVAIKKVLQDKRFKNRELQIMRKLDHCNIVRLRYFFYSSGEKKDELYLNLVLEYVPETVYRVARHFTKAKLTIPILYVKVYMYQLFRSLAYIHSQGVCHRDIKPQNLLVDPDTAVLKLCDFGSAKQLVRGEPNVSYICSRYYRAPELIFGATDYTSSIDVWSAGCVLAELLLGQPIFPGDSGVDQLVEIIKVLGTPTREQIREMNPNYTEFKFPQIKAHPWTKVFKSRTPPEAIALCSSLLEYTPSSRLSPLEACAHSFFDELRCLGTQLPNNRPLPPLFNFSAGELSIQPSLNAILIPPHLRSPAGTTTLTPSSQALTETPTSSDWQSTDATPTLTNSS
# UniProt P14616: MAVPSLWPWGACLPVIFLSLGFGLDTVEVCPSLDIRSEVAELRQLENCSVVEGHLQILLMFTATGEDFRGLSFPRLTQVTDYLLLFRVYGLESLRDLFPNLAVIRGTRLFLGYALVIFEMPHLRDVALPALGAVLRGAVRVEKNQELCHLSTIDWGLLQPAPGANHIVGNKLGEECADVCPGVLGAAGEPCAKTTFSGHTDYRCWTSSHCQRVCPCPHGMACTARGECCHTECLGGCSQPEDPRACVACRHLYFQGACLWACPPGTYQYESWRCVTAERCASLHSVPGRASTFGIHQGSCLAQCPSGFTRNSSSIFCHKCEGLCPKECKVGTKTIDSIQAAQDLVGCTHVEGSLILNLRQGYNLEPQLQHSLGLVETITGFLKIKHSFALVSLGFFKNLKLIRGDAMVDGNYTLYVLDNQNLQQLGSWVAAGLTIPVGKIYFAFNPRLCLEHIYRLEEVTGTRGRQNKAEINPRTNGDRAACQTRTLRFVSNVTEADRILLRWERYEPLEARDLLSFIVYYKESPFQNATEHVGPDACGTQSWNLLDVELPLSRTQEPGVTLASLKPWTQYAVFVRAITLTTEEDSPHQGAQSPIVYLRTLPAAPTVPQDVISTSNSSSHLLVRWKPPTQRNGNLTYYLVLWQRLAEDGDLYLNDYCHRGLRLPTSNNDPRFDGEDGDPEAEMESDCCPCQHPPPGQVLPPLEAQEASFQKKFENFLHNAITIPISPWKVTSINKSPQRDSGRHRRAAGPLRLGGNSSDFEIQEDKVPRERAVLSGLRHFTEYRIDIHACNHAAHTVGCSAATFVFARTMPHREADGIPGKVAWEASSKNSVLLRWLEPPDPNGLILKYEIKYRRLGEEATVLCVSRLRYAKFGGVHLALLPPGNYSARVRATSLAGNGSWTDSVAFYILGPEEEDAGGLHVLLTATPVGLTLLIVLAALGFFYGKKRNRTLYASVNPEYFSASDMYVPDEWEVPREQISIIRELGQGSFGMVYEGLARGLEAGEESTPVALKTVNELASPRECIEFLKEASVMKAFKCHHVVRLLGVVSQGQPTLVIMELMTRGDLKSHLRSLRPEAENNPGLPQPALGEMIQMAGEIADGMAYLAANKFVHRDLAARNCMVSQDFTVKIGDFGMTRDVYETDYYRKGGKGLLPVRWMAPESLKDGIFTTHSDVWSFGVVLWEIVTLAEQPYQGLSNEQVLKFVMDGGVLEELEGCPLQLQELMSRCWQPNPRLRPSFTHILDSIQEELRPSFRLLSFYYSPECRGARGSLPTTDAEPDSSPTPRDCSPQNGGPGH
# UniProt P23458: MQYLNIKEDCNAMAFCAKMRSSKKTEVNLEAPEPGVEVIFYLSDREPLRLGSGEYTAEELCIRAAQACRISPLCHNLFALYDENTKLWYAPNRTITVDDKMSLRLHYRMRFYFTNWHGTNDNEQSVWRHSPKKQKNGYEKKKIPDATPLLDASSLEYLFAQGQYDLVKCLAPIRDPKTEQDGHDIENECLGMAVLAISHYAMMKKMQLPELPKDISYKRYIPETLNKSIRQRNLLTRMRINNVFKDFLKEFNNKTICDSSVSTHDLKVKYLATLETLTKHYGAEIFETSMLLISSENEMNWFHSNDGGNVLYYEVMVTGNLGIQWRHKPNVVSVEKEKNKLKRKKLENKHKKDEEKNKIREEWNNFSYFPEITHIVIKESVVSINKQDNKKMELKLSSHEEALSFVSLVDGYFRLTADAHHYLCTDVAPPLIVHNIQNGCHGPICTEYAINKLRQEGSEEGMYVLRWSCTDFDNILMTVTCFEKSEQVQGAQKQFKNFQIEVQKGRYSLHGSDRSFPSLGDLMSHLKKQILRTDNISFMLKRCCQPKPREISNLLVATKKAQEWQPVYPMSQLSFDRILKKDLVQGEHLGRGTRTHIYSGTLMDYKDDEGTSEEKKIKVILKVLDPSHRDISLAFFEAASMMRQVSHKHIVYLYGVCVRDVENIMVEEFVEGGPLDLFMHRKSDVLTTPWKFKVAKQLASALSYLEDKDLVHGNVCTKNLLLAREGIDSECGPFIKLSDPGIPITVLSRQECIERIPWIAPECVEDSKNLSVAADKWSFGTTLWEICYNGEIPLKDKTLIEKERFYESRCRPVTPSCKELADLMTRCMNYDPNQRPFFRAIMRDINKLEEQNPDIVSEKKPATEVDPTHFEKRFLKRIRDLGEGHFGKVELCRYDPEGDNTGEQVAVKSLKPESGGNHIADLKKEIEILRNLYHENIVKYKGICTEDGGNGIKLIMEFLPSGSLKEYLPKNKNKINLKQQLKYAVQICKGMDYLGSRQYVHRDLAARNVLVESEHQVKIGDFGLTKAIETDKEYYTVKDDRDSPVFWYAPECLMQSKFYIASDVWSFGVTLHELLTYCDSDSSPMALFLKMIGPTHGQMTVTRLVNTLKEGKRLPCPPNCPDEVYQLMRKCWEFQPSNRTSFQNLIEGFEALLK
# UniProt P06239: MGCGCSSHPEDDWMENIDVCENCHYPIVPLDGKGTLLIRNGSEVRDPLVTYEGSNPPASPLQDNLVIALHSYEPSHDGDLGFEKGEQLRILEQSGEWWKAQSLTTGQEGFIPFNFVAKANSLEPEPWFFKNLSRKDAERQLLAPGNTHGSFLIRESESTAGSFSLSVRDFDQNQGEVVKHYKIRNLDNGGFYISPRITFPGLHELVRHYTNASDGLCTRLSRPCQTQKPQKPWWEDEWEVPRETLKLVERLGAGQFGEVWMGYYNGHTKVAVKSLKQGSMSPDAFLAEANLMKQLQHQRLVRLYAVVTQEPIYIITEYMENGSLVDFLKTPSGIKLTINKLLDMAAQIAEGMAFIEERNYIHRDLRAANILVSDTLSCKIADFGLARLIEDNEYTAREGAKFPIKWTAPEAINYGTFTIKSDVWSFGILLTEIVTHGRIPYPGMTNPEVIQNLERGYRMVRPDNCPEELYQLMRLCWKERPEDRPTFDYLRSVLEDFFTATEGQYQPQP
# Counter-ions that a name gives are not always drawn. Some of the results follow. Hit calls seldom repeat between salt and free forms of one compound.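 Kinases were expressed as nanoluciferase fusions in K562 cells and luminescence was read every 4 h between 2 and 18 h as percent of control, DMSO set to 100% and a positive control to 0%. A time point counts as decreased when the signal drops significantly (2 sigma). The hit call is the authors' own, does not follow from the count of time points alone, and its rule is not shown.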
# Columns and labels:
# Assay in all cases: number of time points (of 5) at which kinase-Nluc abundance scored as decreased, DMSO-normalised (count); higher = more persistent destabilization
# Conditions in all cases: K562; 2-18 h
# EGFR_L861Q = EGFR_L861Q (UniProt P00533)
# EGFR_T790M = EGFR_T790M (UniProt P00533)
# EPHA2 = EPHA2 (UniProt P29317)
# ERBB3 = ERBB3 (UniProt P21860)
# [1] = target: ERBB4_R711C (clone: ERBB4_mut) (UniProt Q15303)
# ERN1 = ERN1 (UniProt O75460)
# FGFR1 = FGFR1 (UniProt P11362)
# FGFR2 = FGFR2 (UniProt P21802)
# FGFR3 = FGFR3 (UniProt P22607)
# FGR = FGR (UniProt P09769)
# FLT3 = FLT3 (UniProt P36888)
# FYN = FYN (UniProt P06241)
# GSK3A = GSK3A (UniProt P49840)
# HER2 = HER2 (UniProt P04626)
# INSRR = INSRR (UniProt P14616)
# IRAK3 = IRAK3 (UniProt Q9Y616)
# JAK1 = JAK1 (UniProt P23458)
# LCK = LCK (UniProt P06239)
# LIMK1 = LIMK1 (UniProt P53667)
# LIMK2 = LIMK2 (UniProt P53671)
Compound,number of time points (EGFR_L861Q),number of time points (EGFR_T790M),number of time points (EPHA2),number of time points (ERBB3),number of time points [1],number of time points (ERN1),number of time points (FGFR1),number of time points (FGFR2),number of time points (FGFR3),number of time points (FGR),number of time points (FLT3),number of time points (FYN),number of time points (GSK3A),number of time points (HER2),number of time points (INSRR),number of time points (IRAK3),number of time points (JAK1),number of time points (LCK),number of time points (LIMK1),number of time points (LIMK2)
Cc1ccc2cc(-c3c(C)ccc(C(=O)c4c(-c5ccccc5)n(C)n(-c5ccccc5)c4=O)c3N)ccc2n1 (2.5 µM),0,0,0,0,0,0,0,0,0,0,0,0,0,0,0,0,0,0,0,0
CC1(C)C(O[C@@H]2OC[C@@H](O)[C@H](O)[C@H]2O)CC[C@]23CC24CC[C@]2(C)[C@@H]([C@@]5(C)CC[C@@H](C(C)(C)O)O5)[C@H](O)C[C@@]2(C)C4C[C@@H](O[C@@H]2O[C@H](CO)[C@@H](O)[C@H](O)[C@H]2O)C13 (stereo not given in full) [Astragaloside IV] (10 µM),0,0,0,0,0,0,0,0,0,0,0,0,0,0,0,0,0,0,0,0
Nc1ncnc2c1c(-c1ccc(Oc3ccccc3)cc1)nn2C1CCCC1 (2.5 µM),0,0,0,0,0,0,0,1,0,0,0,0,0,0,0,0,0,0,0,0
COc1cc2ncnc(Nc3ccc(Cl)cc3F)c2cc1OC (10 µM),0,0,0,0,0,0,0,0,0,0,0,0,0,0,0,0,0,0,0,0
Cc1ccc(C(=O)Nc2ccc(Oc3cc4cnn(C)c4cc3-c3cn[nH]c3)c(F)c2)c(=O)n1-c1ccc(F)cc1 [Merestinib dihydrochloride] (2.5 µM),0,0,0,0,0,0,0,0,0,0,0,0,0,0,0,0,0,0,3,0
C[C@@H](c1ccc(F)cc1)n1nnc2cnc3ccc(-c4ccc5ocnc5c4)cc3c21 (10 µM),0,0,0,0,0,0,0,0,0,0,0,0,0,0,0,0,0,0,0,0
CCN1CCN(Cc2ccc(Nc3ncc(F)c(-c4cc(F)c5nc(C)n(C(C)C)c5c4)n3)nc2)CC1 [Abemaciclib (methanesulfonate)] (10 µM),1,0,0,4,4,4,0,3,0,0,3,0,0,0,0,0,4,0,0,3
CN1CCC(c2cc(-c3ccncc3)c(-c3ccc(F)cc3)[nH]2)CC1 (10 µM),0,0,0,0,0,0,0,0,0,0,0,0,0,0,0,0,0,0,0,0
Cc1ccc(OCCSc2ncccn2)c(Br)c1 [ZLN024 (hydrochloride)] (10 µM),0,0,0,0,0,0,0,0,0,0,0,0,0,0,0,0,0,0,0,0
O=S(=O)(NCCCN1c2ccccc2CCc2ccc(Cl)cc21)c1ccc(OC(F)(F)F)cc1 (2.5 µM),0,0,0,0,0,0,0,0,0,0,0,0,0,0,0,0,0,0,0,0
COCCNc1nc2ccc(C#CC3(O)CCCCC3)cc2n1-c1ccnc(N)n1 (10 µM),0,0,0,0,0,0,0,0,0,0,0,0,0,0,0,0,0,0,0,0
C=CC(=O)Nc1cc(C)ccc1Nc1nc(Nc2cc(OC)ncc2C)ncc1C(F)(F)F (10 µM),0,0,0,0,0,0,0,0,0,0,0,0,0,0,0,0,0,0,0,0
N#Cc1c(C2CCNCC2)cc(-c2c(O)cccc2OCC2CC2)nc1N [ACHP (Hydrochloride)] (10 µM),0,0,0,0,0,0,0,0,0,0,0,0,0,0,0,0,0,0,0,0
Cc1ccccc1-n1c([C@H](C)Nc2nc(N)nc3nc[nH]c23)nc2cccc(C)c2c1=O [CAL-130 (Hydrochloride)] (10 µM),0,0,0,0,0,0,0,0,0,0,0,0,0,0,0,0,0,0,0,0
COc1cc(/C=C/C(=O)NCC(O)c2ccc(O)cc2)ccc1O (stereo not given) [N-Feruloyloctopamine] (2.5 µM),0,0,0,0,0,0,0,0,0,0,0,0,0,0,0,0,0,0,0,0
CCOc1ccc2cc(-c3nn(CC4CCN(C)CC4)c4ncnc(N)c34)ccc2n1 (10 µM),0,0,0,0,0,0,0,0,0,0,0,0,0,0,0,0,0,0,0,0
Cn1cnc2c(F)c(Nc3ccc(Br)cc3Cl)c(C(=O)NOCCO)cc21 [Selumetinib (sulfate)] (10 µM),0,0,0,0,0,0,0,0,0,0,0,0,0,0,0,0,1,0,0,0
CCc1c(C(=O)NNC(=O)C(O)c2cc(F)cc(F)c2)ccc(O)c1C (stereo not given) (10 µM),0,0,0,0,0,0,0,0,0,0,0,0,0,0,0,0,0,0,0,0
FC(F)(F)c1ccc(CNc2ccc(Cc3c[nH]c4ncccc34)cn2)cc1 (10 µM),0,0,0,0,0,0,0,0,0,0,0,0,0,0,0,0,0,0,0,0
O=C1NC(=O)/C(=C\c2cccc(C(F)(F)F)c2)S1 (2.5 µM),0,0,0,0,0,0,0,0,0,0,0,0,0,0,0,0,0,0,0,0
O=C([O-])c1cc2ccccc2c(Cc2c(O)c(C(=O)[O-])cc3ccccc23)c1O.[Na+].[Na+] [Pamoic acid (disodium)] (10 µM),0,0,0,0,0,0,0,0,0,0,0,0,0,0,0,0,0,0,0,0
Nc1ccc(-c2cnc(N)c(-c3ccc(Cl)cc3)c2)cn1 (10 µM),0,0,0,0,0,0,0,0,0,0,0,0,0,0,0,0,0,0,0,0
C=C1C(=O)O[C@H]2C[C@H](C)C(/C=C/C(C)=O)=CC[C@H]12 [Xanthatin] (2.5 µM),0,0,0,0,0,0,0,0,0,0,0,0,0,0,0,0,0,0,0,0
O=C1Nc2ccc(C(=O)c3ccco3)cc2C1=Cc1cc(Cl)c(O)c(Cl)c1 (2.5 µM),0,0,0,0,0,0,0,0,0,0,0,0,0,0,0,0,0,0,0,0

# Looked up above.
# For number of time points (FGFR2), `Cc1ccc2cc(-c3c(C)ccc(C(=O)c4c(-c5ccccc5)n(C)n(-c5ccccc5)c4=O)c3N)ccc2n1` (2.5 µM) is listed with 0
# For number of time points (FGR), `CCc1c(C(=O)NNC(=O)C(O)c2cc(F)cc(F)c2)ccc(O)c1C` (stereo not given) (10 µM) is listed with 0
